From PubChem BioAssay AID2517 (National Center for Advancing Translational Sciences (NCATS), 2010)
Several values for one entry are separate records, joined by “and”; a condition that tells them apart may be missing. Equal entries are not always repeated. The campaign covered roughly 350,000 compounds. About 1,200 (0.34%) were called active. The shares of active, inactive and inconclusive entries below differ from those in the screen. Calls come from the whole dose curve; as a rule, active = well fitted inhibition curve with a large enough effect; inconclusive = small, poorly fitted or top-dose-only effect; inactive = no such curve, though single readings can be large or run the other way. Where the call is inconclusive, the potency comes from a doubtful curve fit.
Note: nearly all actives have a fitted effect of over 55% in size.
Potency is the fitted concentration of half-maximal effect.
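Throughout, for activity change, negative = inhibition: plate controls were vehicle for no effect and reference inhibitor for full effect.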

Amino acid sequences for entries named in this document (tags omitted).
UniProt P27695, whole entry, looked up: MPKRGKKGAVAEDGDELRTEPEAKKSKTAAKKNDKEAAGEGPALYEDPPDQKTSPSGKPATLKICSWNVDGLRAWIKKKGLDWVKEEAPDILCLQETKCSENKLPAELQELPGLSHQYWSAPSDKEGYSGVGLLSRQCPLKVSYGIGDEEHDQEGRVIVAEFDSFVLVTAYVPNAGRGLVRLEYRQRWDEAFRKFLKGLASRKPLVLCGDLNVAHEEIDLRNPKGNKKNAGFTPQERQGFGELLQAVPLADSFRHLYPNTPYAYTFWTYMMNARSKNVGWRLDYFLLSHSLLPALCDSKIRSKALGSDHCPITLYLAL

Each molecule was assayed against DNA repair nuclease/redox regulator APEX1 (Homo sapiens) (UniProt P27695) (assay: qHTS Assay for Inhibitors of the Human Apurinic/apyrimidinic Endonuclease 1 (APE1)). Details: recombinant APE1, TAMRA/BHQ-2 abasic DNA cleavage fluorescence; activity change, negative = inhibition: at 65.8 µM (top of the series).
How it was run: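 APE1 at 0.75 nM final was preincubated with compound 15 min at room temperature, then 50 nM double-stranded THF abasic-site substrate (5'-TAMRA/3'-BHQ-2) was added. Fluorescence (ex 525/em 598 nm) was read kinetically; third-minus-first read gave activity.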
For `O=C(Nc1ccc(S(=O)(=O)Nc2nccs2)cc1)c1ccc(F)cc1`, the activity change, negative = inhibition was inactive: 3.08% [at 12.4 µM]. With `Nc1cc(-c2ccncc2)c[nH]c1=O` the Potency was inconclusive: 14.1 µM [inhibitor, partial curve, poor fit] and inconclusive: 22.4 µM [inhibitor, partial curve]. In the case of `CCCCCC(=O)c1c(O)cc(OC)c(Cl)c1O`, the “activity change, negative = inhibition” value is reported as inactive: -5.22%. In the case of `CCC/C=C1\CCCOC(C(=O)NCc2ccc(C)o2)(C(F)(F)F)C1` (stereo not drawn), the Potency is reported as inconclusive: 44.7 µM [inhibitor, single point]. In the case of `CSCCC(NC(N)=O)C(=O)Nc1cccc(C#N)c1` (stereo not drawn), the Potency is reported as inconclusive: 39.8 µM [inhibitor, single point]. `CS(=O)(=O)N(CC(=O)NCCSCc1c(F)cccc1Cl)c1ccc2c(c1)OCO2` was tested, and the Potency was inconclusive: 28.2 µM [inhibitor, single point]. In the case of `COC(=O)c1sc(-c2ccccc2)cc1NC(C)=O`, the “activity change, negative = inhibition” value is reported as inactive: -6.98%. With `COc1ccccc1-n1cnnc1SCC(=O)c1cc(C)n(Cc2cccs2)c1C` the Potency was inconclusive: 44.7 µM [inhibitor, single point]. `COC(=O)c1c(C(C)=O)cnc2ccc(Br)cc12` was tested, and the Potency was inconclusive: 3.98 µM [inhibitor, partial curve]. `O=C1[C@H]2[C@H]3[C@H](O)[C@H](O)C/C(=N/OC[C@@H](O)COCc4ccco4)[C@@H]3CC[C@@H]2C(=O)N1Cc1ccccc1` was tested, and the Potency was inconclusive: 4.47 µM [inhibitor, single point]. With `CO[C@@H]1/C=C\CC(=O)N[C@@H](C)C(=O)OC[C@@H](OC)[C@H](C)CCCC(=O)OC[C@H]1C` the Potency was inconclusive: 2.82 µM [inhibitor, partial curve]. `COc1ccc(-c2cc3nc(-c4ccccc4)cc(N4CCC(O)CC4)n3n2)cc1` was tested, and the Potency was inconclusive: 25.1 µM [inhibitor, single point]. With `COc1ccccc1/C=C1\SC(=S)N(CCC(=O)Nc2ccc(C(=O)O)c(O)c2)C1=O` the “activity change, negative = inhibition” value was inactive: -2.9%. With `O=C(Nc1cccc([N+](=O)[O-])c1)c1cc2ccccc2cc1O` the Potency was active: 28.2 µM. In the case of `COc1cc2[nH]c3c(N4CCN(c5ccccn5)CC4)ncnc3c2cc1OC`, the Potency is reported as inconclusive: 31.6 µM [inhibitor, partial curve]. In the case of `O=C(CCc1ccccc1)Nc1nncs1`, the Potency is reported as inconclusive: 4.47 µM [inhibitor, partial curve]. With `CN1CCN(S(=O)(=O)c2ccc(NC(=S)NC(=O)C3CCCC3)cc2)CC1` the Potency was inconclusive: 31.6 µM [inhibitor, partial curve, poor fit]. `COc1ccc(Nc2ccc(OC)cc2)cc1` was tested, and the “activity change, negative = inhibition” value was inactive: 11%. `COC(=O)C1=C[C@@H](C(=O)OC)[C@@H]2C3=C(C(=O)C2(C)C)[C@H](C)n2c(=O)n(C)c(=O)n2[C@@H]3C1` was tested, and the “activity change, negative = inhibition” value was inactive: -2.33%. With `CN1C(=O)c2ccccc2C(C(=O)O)C1c1cccc([N+](=O)[O-])c1` (stereo not drawn) the Potency was inconclusive: 44.7 µM [inhibitor, single point]. With `O=C1COc2ccc(C(=O)COC(=O)c3cc(S(=O)(=O)NCc4ccccc4)ccc3O)cc2N1` the Potency was inconclusive: 12.6 µM [inhibitor, partial curve]. In the case of `Cc1c(O)c(O)cc2c1oc1c3ccccc3oc(=O)c21`, the Potency is reported as inconclusive: 14.1 µM [inhibitor, partial curve]. `Cc1cccc(NC(=O)c2cc3cc([N+](=O)[O-])ccc3s2)n1` was tested, and the Potency was inconclusive: 0.251 µM [inhibitor, full curve, poor fit]. For `COc1cc2oc(=O)c3c4c(cc5ccc(c1CCN(C)C)c2c53)OCO4`, the Potency was inconclusive: 14.1 µM [inhibitor, partial curve]. `CC1=NN(c2ccc(C(=O)O)cc2)C(=O)/C1=C/c1ccc(-c2ccccc2F)o1` was tested, and the “activity change, negative = inhibition” value was inactive: -1.6%. `CCn1ncc(N(C)N)c(Cl)c1=O` was tested, and the Potency was inconclusive: 39.8 µM [inhibitor, single point]. For `CCCc1[nH]n(-c2ccc([N+](=O)[O-])cc2)c(=O)c1C(C)=NCc1ccncc1`, the Potency was inconclusive: 44.7 µM [inhibitor, partial curve, poor fit]. For `N#CC1=C2SCN(Cc3ccccc3)CN2C(=O)CC1c1ccc2c(c1)OCO2` (stereo not drawn), the “activity change, negative = inhibition” value was inactive: 3.49%. With `CC(C)(C)c1ccc(C(=O)CCCSC2=C(C#N)C(c3ccco3)C3=C(CCCC3=O)N2)cc1` (stereo not drawn) the Potency was inconclusive: 44.7 µM [inhibitor, single point]. For `O=c1cc(CSc2nnc(-c3cccs3)n2Cc2ccccc2)nc2sc3ccccc3n12`, the Potency was inconclusive: 22.4 µM [inhibitor, partial curve]. For `C[C@@H]1O[C@@H](OC[C@H]2O[C@@H](Oc3c(-c4cccc(O)c4O)oc4cc(O)cc(O)c4c3=O)[C@H](O)[C@@H](O)[C@@H]2O)[C@H](O)[C@H](O)[C@H]1O`, the Potency was inconclusive: 20 µM [inhibitor, partial curve]. For `O=[N+]([O-])c1nn(-c2ccccc2)n(O)c1=NC1CCN(Cc2ccccc2)CC1`, the Potency was inconclusive: 4.47 µM [inhibitor, partial curve, poor fit]. `CC1=NC(C)(C)Cc2c(C)cccc21` was tested, and the Potency was inconclusive: 20 µM [inhibitor, partial curve]. For `CC(C)N1CC=C2C(C#N)=C(N)C(C#N)(C#N)[C@H](c3ccoc3)[C@H]2C1`, the Potency was inconclusive: 20 µM [inhibitor, partial curve, poor fit]. In the case of `Nc1c(C(=O)NCc2ccccc2)c2nc3ccccc3nc2n1CCCN1CCOCC1`, the Potency is reported as inconclusive: 44.7 µM [inhibitor, single point]. In the case of `O=C(Nc1cc([N+](=O)[O-])ccc1O)c1cccc(C(=O)Nc2cc([N+](=O)[O-])ccc2O)c1`, the Potency is reported as inconclusive: 23.8 µM [inhibitor, single point]. For `O=C(O)c1cccc(Oc2ccccc2[N+](=O)[O-])c1`, the Potency was inconclusive: 0.0141 µM [inhibitor, full curve, poor fit]. `COc1ccc(Br)c(C(=O)N2CCN(S(=O)(=O)/C=C/c3ccccc3)CC2)c1` was tested, and the Potency was inconclusive: 56.2 µM [inhibitor, partial curve, poor fit].
